{"source": "PubChem BioAssay AID330", "about": "(DTP/NCI, 2004)", "system": "P388 leukemia ip, CD2F1 mice, survival T/C", "experiment": "NCI In Vivo Anticancer Drug Screen. Data for tumor model P388 Leukemia (intraperitoneal) in CD2F1 (CDF1) mice", "details": "T/C endpoint: median survival time, higher T/C = longer survival", "key": {"[1]": {"details": "dose: 200.0 mg/kg/injection, schedule: Q01DX005 (ip), vehicle: Klucel (hydroxypropylcellulose) (HPC)"}}, "note": "The list does not hold the whole screen: it is rich in T/C values a quarter to a half above the control, in often repeated tests (any T/C) and in doses without a T/C. Other doses and runs of a compound stand elsewhere. T/C is the treated group as % of the vehicle group. Some doses have a count of surviving animals in place of a T/C: the source files T/C as zero there, which appears to mark a toxic dose or a test without result, not a measured value. Some doses without a T/C left all or most animals alive at the check, yet need not have been tolerated: the source hardly ever lists a survival T/C far under the control, and the zero likely stands for such cases as well. Survivors were counted at the toxicity check, usually on the fifth day, unless a day is given; later deaths do not show. Schedules are NCI's codes, taken here to give the interval after Q, in days (D) or hours (H), and the number of doses after X. Some schedules carry Z or #; the key to these is not given. Some entries were tested several times; the values are given in rising order. Where survival is the endpoint, this PubChem deposit counts one and a half times the control or more as active, and values a quarter to a half above the control carry no call in these data; other NCI protocols may use other cut-offs. Some T/C values are followed by the survivors on the day toxicity was checked, most often the fifth; without a count, all were alive then."}
{"smiles": "CCN(CC)CCCC(C)Nc1c2ccc(Cl)cc2nc2ccc(OC)cc12", "note": "(stereo unspecified)", "values": [{"measurement": "T/C", "setting": "dose: 12.0 mg/kg/injection, schedule: Q03HX024 (ip), vehicle: saline with Tween-80", "result": "126 % of control"}, {"measurement": "T/C", "setting": "dose: 32.0 mg/kg/injection, schedule: Q01DX009 (ip), vehicle: saline with Tween-80", "result": "127 % of control"}, {"measurement": "T/C", "setting": "dose: 64.0 mg/kg/injection, schedule: Q01DX009 (ip), vehicle: saline with Tween-80", "result": "127 [5 of 6 alive] and 148 % of control"}, {"measurement": "survivor count", "setting": "dose: 64.0 mg/kg/injection, schedule: Q#A X018 (ip), vehicle: saline with Tween-80", "result": "5 of 6"}, {"measurement": "survivor count", "setting": "dose: 128.0 mg/kg/injection, schedule: Q01DX009 (ip), vehicle: saline with Tween-80", "result": "3 of 6"}, {"measurement": "survivor count", "setting": "dose: 128.0 mg/kg/injection, schedule: Q#A X018 (ip), vehicle: saline with Tween-80", "result": "4 of 6"}, {"measurement": "T/C", "setting": "dose: 160.0 mg/kg/injection, schedule: Q04DX003 (ip), vehicle: saline with Tween-80", "result": "125 % of control"}, {"measurement": "survivor count", "setting": "dose: 192.0 mg/kg/injection, schedule: Q04DX003 (ip), vehicle: saline with Tween-80", "result": "4 of 6"}, {"measurement": "survivor count", "setting": "dose: 256.0 mg/kg/injection, schedule: Q01DX009 (ip), vehicle: saline with Tween-80", "result": "0 of 6"}, {"measurement": "survivor count", "setting": "dose: 256.0 mg/kg/injection, schedule: Q01DX009 (ip), vehicle: suspension in saline", "result": "0 of 6"}, {"measurement": "survivor count", "setting": "dose: 287.0 mg/kg/injection, schedule: Q01DX001 (ip), vehicle: saline with Tween-80", "result": "1 of 6"}, {"measurement": "survivor count", "setting": "dose: 320.0 mg/kg/injection, schedule: Q04DX003 (ip), vehicle: saline with Tween-80", "result": "0 of 6"}, {"measurement": "survivor count", "setting": "dose: 384.0 mg/kg/injection, schedule: Q04DX003 (ip), vehicle: saline with Tween-80", "result": "2 of 6"}, {"measurement": "survivor count", "setting": "dose: 575.0 mg/kg/injection, schedule: Q01DX001 (ip), vehicle: saline with Tween-80", "result": "0 of 6"}, {"measurement": "survivor count", "setting": "dose: 768.0 mg/kg/injection, schedule: Q04DX003 (ip), vehicle: saline with Tween-80", "result": "0 of 6"}, {"measurement": "survivor count", "setting": "dose: 1150.0 mg/kg/injection, schedule: Q01DX001 (ip), vehicle: saline with Tween-80", "result": "0 of 6"}, {"measurement": "survivor count", "setting": "dose: 2300.0 mg/kg/injection, schedule: Q01DX001 (ip), vehicle: saline with Tween-80", "result": "0 of 6"}]}
{"smiles": "O=C(N/N=C/c1ccco1)C(=O)Nc1cccc(C(F)(F)F)c1", "values": [{"measurement": "survivor count", "setting": "dose: 100.0 mg/kg/injection, schedule: Q01DX005 (ip), vehicle: Klucel (hydroxypropylcellulose) (HPC)", "result": "6 of 6"}, {"measurement": "survivor count", "setting": "[1]", "result": "6 of 6"}]}
{"smiles": "O=c1nc(Nc2cccc(Cl)c2)oc2cc(Cl)oc(=O)c12", "values": [{"measurement": "survivor count", "setting": "dose: 200.0 mg/kg/injection, schedule: Q01DX009 (ip), vehicle: saline with Tween-80", "result": "3 of 6"}]}
{"smiles": "COc1ccc(CCNC2=C(/C=C\\C(=O)O)C(=O)CC2)cc1OC", "values": [{"measurement": "survivor count", "setting": "dose: 200.0 mg/kg/injection, schedule: Q01DX001 (ip), vehicle: Klucel (hydroxypropylcellulose) (HPC)", "result": "6 of 6"}, {"measurement": "survivor count", "setting": "dose: 400.0 mg/kg/injection, schedule: Q01DX001 (ip), vehicle: Klucel (hydroxypropylcellulose) (HPC)", "result": "5 of 6"}]}
{"smiles": "CN1OC(C#N)CC1c1ccccc1", "note": "(stereo unspecified)", "values": [{"measurement": "survivor count", "setting": "dose: 175.0 mg/kg/injection, schedule: Q04DX002 (ip), vehicle: Klucel (hydroxypropylcellulose) (HPC)", "result": "3 of 6"}, {"measurement": "survivor count", "setting": "dose: 200.0 mg/kg/injection, schedule: Q04DX002 (ip), vehicle: Klucel (hydroxypropylcellulose) (HPC)", "result": "2 of 6"}, {"measurement": "survivor count", "setting": "dose: 400.0 mg/kg/injection, schedule: Q04DX002 (ip), vehicle: Klucel (hydroxypropylcellulose) (HPC)", "result": "1 of 6"}]}
{"smiles": "NC(=S)c1ccc(C2Nc3ccccc3N2)cc1", "values": [{"measurement": "survivor count", "setting": "dose: 200.0 mg/kg/injection, schedule: Q04DX002 (ip), vehicle: saline with Tween-80", "result": "6 of 6"}, {"measurement": "survivor count", "setting": "dose: 400.0 mg/kg/injection, schedule: Q04DX002 (ip), vehicle: saline with Tween-80", "result": "4 of 6"}]}
{"smiles": "O=C(O)C1C(C(=O)O)C2C(=O)C=CC1N2Cc1ccccc1", "note": "(stereo unspecified)", "values": [{"measurement": "survivor count", "setting": "[1]", "result": "2 of 6 and 4 of 6"}]}
{"smiles": "O=c1c2cccc3cccc(c32)c2nc3ccccc3n12", "values": [{"measurement": "T/C", "setting": "dose: 6.25 mg/kg/injection, schedule: Q01DX009 (ip), vehicle: saline with Tween-80", "result": "130 % of control"}, {"measurement": "T/C", "setting": "dose: 9.4 mg/kg/injection, schedule: Q01DX009 (ip), vehicle: saline with Tween-80", "result": "129 % of control"}, {"measurement": "T/C", "setting": "dose: 12.5 mg/kg/injection, schedule: Q01DX009 (ip), vehicle: saline with Tween-80", "result": "126 % of control"}]}
